Measurements reported in PubChem BioAssay AID1224830 (NIAID, 2016).

Aim: 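Host factors that control LPS-induced TNF expression in human macrophages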 (primary screen)
Cell system: human THP-1 monocytic leukaemia cells, TNF dual-luciferase reporter clone, PMA-differentiated to macrophage-like cells
Reagent: siRNA pool against human genes, 50 nM
Time to read-out: LPS for 4 h, given about 3 days after siRNA transfection
Challenge: bacterial LPS (TLR4 ligand), 10 ng/ml
Detection: 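Ratio of firefly to renilla light, scaled to the plate median and expressed as a robust z-score per replicate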
Scale: TNF reporter robust z-score: higher = stronger TNF reporter response to LPS
Rule for the call: 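Each well counts as active if its z-score is over 2.8 or under -1.5; controls are left without a call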
In all, the deposit lists about 18,000 reagents; shown is a random part of them. Of all reagents, about 2,900 (16%) got an active call. 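Calls are made per well; low scores hint the gene aids the LPS response, high scores that it dampens it.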 A number with no mark means an inactive call. Repeated entries: four replicate wells of each siRNA pool.

LDAF1 (lipid droplet assembly factor 1) gave TNF reporter robust z-score 1.67. After knock-down of LDAF1 (lipid droplet assembly factor 1), the record shows TNF reporter robust z-score 1.96. Knock-down of LDAF1 (lipid droplet assembly factor 1) resulted in: TNF reporter robust z-score 0.37. ADAM22 (ADAM metallopeptidase domain 22) showed TNF reporter robust z-score 1.4. Silencing of ADAM22 (ADAM metallopeptidase domain 22) resulted in: TNF reporter robust z-score 0.65. ADAM22 (ADAM metallopeptidase domain 22) scored TNF reporter robust z-score 2.16.

With knock-down of ADAM22 (ADAM metallopeptidase domain 22), the screen gave TNF reporter robust z-score 2.76. For RLN2 (relaxin 2), the entry reads TNF reporter robust z-score -0.56. After knock-down of RLN2 (relaxin 2) the results were TNF reporter robust z-score -1.02. RLN2 (relaxin 2) showed TNF reporter robust z-score -1.64 (active). Knock-down of RLN2 (relaxin 2) gave: TNF reporter robust z-score -1.35. After knock-down of MAPK8IP3 (mitogen-activated protein kinase 8 interacting protein 3), the screen gave TNF reporter robust z-score 3 (active).

Depletion of MAPK8IP3 (mitogen-activated protein kinase 8 interacting protein 3) came out at: TNF reporter robust z-score 2.94 (active). After knock-down of MAPK8IP3 (mitogen-activated protein kinase 8 interacting protein 3) the results were TNF reporter robust z-score 0.22. After knock-down of MAPK8IP3 (mitogen-activated protein kinase 8 interacting protein 3), the screen gave TNF reporter robust z-score 0.7. Silencing of RTP4 (receptor transporter protein 4) resulted in: TNF reporter robust z-score -0.76. For RTP4 (receptor transporter protein 4), the entry reads TNF reporter robust z-score -0.14. After knock-down of RTP4 (receptor transporter protein 4) the results were TNF reporter robust z-score 0.37.

With knock-down of RTP4 (receptor transporter protein 4) the results were TNF reporter robust z-score 0.99. Silencing of DYRK2 (dual specificity tyrosine phosphorylation regulated kinase 2) resulted in: TNF reporter robust z-score 0.52. DYRK2 (dual specificity tyrosine phosphorylation regulated kinase 2) scored TNF reporter robust z-score 0.16. Depletion of DYRK2 (dual specificity tyrosine phosphorylation regulated kinase 2) gave: TNF reporter robust z-score 0.36. Depletion of DYRK2 (dual specificity tyrosine phosphorylation regulated kinase 2) gave: TNF reporter robust z-score 1.45.

2 entries already listed, arranged by “TNF reporter robust z-score”, highest first.
LDAF1 (lipid droplet assembly factor 1) → TNF reporter robust z-score: 1.96
LDAF1 (lipid droplet assembly factor 1) → TNF reporter robust z-score: 1.67

The list goes on:
CPSF2 (cleavage and polyadenylation specific factor 2) scored TNF reporter robust z-score 0.89. After knock-down of CPSF2 (cleavage and polyadenylation specific factor 2), the screen gave TNF reporter robust z-score 0. CPSF2 (cleavage and polyadenylation specific factor 2) scored TNF reporter robust z-score -1.54 (active). After knock-down of CPSF2 (cleavage and polyadenylation specific factor 2), the record shows TNF reporter robust z-score 1.7. Against ARSL (arylsulfatase L) the deposit lists TNF reporter robust z-score -0.85. With knock-down of ARSL (arylsulfatase L) the results were TNF reporter robust z-score 0.2.

ARSL (arylsulfatase L) gave TNF reporter robust z-score -0.63. Silencing of ARSL (arylsulfatase L) gave: TNF reporter robust z-score 0.81. With knock-down of CNOT10 (CCR4-NOT transcription complex subunit 10), the screen gave TNF reporter robust z-score -0.17. Silencing of CNOT10 (CCR4-NOT transcription complex subunit 10) came out at: TNF reporter robust z-score 0.83. With knock-down of CNOT10 (CCR4-NOT transcription complex subunit 10), the record shows TNF reporter robust z-score -0.73. Knock-down of CNOT10 (CCR4-NOT transcription complex subunit 10) resulted in: TNF reporter robust z-score 1.02.
